These are yes or no findings as the source states them, for the method shown. Some binding calls cover weakened binding; strength is not graded here.

Chains of the proteins cited; added tags and fusions are not shown. Residues count along the entry.
UniProt P27918, residues 28-469: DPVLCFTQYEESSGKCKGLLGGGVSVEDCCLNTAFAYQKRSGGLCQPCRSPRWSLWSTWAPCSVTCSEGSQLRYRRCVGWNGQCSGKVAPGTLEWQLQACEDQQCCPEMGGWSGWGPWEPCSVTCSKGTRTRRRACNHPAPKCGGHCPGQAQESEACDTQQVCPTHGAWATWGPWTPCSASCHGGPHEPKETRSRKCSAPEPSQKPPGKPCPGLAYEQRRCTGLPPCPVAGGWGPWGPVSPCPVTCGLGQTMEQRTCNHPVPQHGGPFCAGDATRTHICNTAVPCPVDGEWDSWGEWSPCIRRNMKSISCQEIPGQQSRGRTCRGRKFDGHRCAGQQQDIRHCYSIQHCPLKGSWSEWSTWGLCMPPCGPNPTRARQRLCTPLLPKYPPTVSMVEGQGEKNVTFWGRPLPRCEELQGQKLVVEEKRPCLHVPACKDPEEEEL

The target of assay [1] is T1, human properdin (human, UniProt P27918 28-469). Put plainly: BLI (Octet), biotinylated human properdin on streptavidin biosensors, VHH at 10 µg/mL.
For assay [2], the target named is T1, human properdin. Nature of the assay: BLI (Octet), legend of FIG. 1.
The target in assay [3] is cynomolgus properdin (cynomolgus). Nature of the assay: sensorgram (Resp. Diff. in RU against time) with fitted curves, panel title 'Cyno Properdin_TPP2951 - 21Nov17'; properdin capture method.
Assay [4] shares this target. Nature of the assay: sensorgram (Resp. Diff. in RU against time) with fitted curves, panel title 'Cyno Properdin_TPP3261 - 20Nov17'; properdin capture method.

B1: AB008 (VHH)
VHH: QVQLVESGGGLRQTGESLRLSCTASGRIFEVNMMAWYRQAPGKQRELVAEISRVGTTTYADSVKGRFTISRDSAKNTVTLQMNSLKSEDTAVYYCNALQYDRYGGAEYWGQGTQVTVSG
notes: Llama VHH, cloned and expressed with a 6x histidine tag; also called anti-properdin VHH AB008
B1: the binding entry with human properdin [1] and with human properdin [2] was “binds” throughout.

B2: AB006 (VHH)
VHH: QVQLAESGGGLVQAGDSLKLSCTASGRIFEVNMMAWYRQAPGKDRELVAEISRVGTTTYADSVKGRFTISRDSAKNTVTLQMNSLKSEDTAVYYCNALQYSRYGGAEYWGQGTQVTVSG
Consider B2, for which the binding entry in the assay with human properdin [1] and with human properdin [2] was “binds” in each case.

B3: AB005 (VHH)
VHH: QVQVVESGGGLRQTGGSLRLSCTASGRIFEVNMMAWYRQAPGKQRELVAEISRVGTTVYADSVKGRFTISRDSAKNTVTLQMNSLKSEDTAVYYCNALQYDRYGGAEYWGQGTQVTVSS
As for B3, the binding result with human properdin [1] and with human properdin [2] was “binds” each time.

B4: AB007 (VHH)
VHH: QVQLVESGGGLVQAGGSLRLSCAASGRISSIIHMAWYRQAPGKQRELVAEISRVGTTVYADSVKGRFTISRDDAKNTVTLQMNSLKPEDTAVYYCNALQYEKHGGADYWGQGTQVTVSG
notes: Llama VHH, cloned and expressed with a 6x histidine tag; also called anti-properdin VHH AB007
Turning to B4, the binding entry with human properdin [1] and with human properdin [2] was “binds” in each case.

B5: TPP-2951 (Humanized anti-Albumin LVP058 (G4S)3 Linker (7-backmutations)) (bispecific antibody)
chain: EVQLVESGGGLVKPGGSLRLSCAASGRPVSNYAAAWFRQAPGKEREFVSAINWQKTATYADSVKGRFTISRDNAKNSLYLQMNSLRAEDTAVYYCAAVFRVVAPKTQYDYDYWGQGTLVTVSSGGGGSGGGGSGGGGSEVQLLESGGGLVQPGGSLRLSCAASGRISSIIHMAWFRQAPGKERELVSEISRVGTTVYADSVKGRFTISRDNSKNTLYLQMNSLKPEDTAVYYCNALQYEKHGGADYWGQGTLVTVSS
notes: Single chain: anti-albumin VHH, (G4S)3 linker, humanized LVP058 with 7 back mutations
On to B5, for which the binding result in assay [3] is listed as “binds”.

B6: TPP-3261 (Humanized anti-Albumin LVP058 (G4S)3 Linker (3-backmutations)) (bispecific antibody)
chain: EVQLVESGGGLVKPGGSLRLSCAASGRPVSNYAAAWFRQAPGKEREFVSAINWQKTATYADSVKGRFTISRDNAKNSLYLQMNSLRAEDTAVYYCAAVFRVVAPKTQYDYDYWGQGTLVTVSSGGGGSGGGGSGGGGSEVQLVESGGGLVQPGGSLRLSCAASGRISSIIHMAWVRQAPGKQRELVSEISRVGTTVYADSVKGRFTISRDNSKNTLYLQMNSLRAEDTAVYYCNALQYEKHGGADYWGQGTLVTVSS
notes: Single chain: anti-albumin VHH, (G4S)3 linker, humanized LVP058 with 3 back mutations
With B6, the binding result in assay [4] is listed as “binds”.

These data come from patent publication US20190352381A1 (Alexion, published 2019).
